Experimental data as given in PMC4996946.
Results are given in words; binding and its absence hold for the method and conditions named. In cells and extracts the contact can be indirect. Some entries that bind do so weakly or less than the wild type. For some of these results: Sequences can lack the tags named with a protein. Blank lines part the entries; values can stand above or below the molecule they belong to.

By UniProt entry, the sequences of proteins in these tests, tags left out. Where a name states a change or a piece, a line headed by the entry shows the natural chain unless it says otherwise. Residues count along the entry.
UniProt Q14344: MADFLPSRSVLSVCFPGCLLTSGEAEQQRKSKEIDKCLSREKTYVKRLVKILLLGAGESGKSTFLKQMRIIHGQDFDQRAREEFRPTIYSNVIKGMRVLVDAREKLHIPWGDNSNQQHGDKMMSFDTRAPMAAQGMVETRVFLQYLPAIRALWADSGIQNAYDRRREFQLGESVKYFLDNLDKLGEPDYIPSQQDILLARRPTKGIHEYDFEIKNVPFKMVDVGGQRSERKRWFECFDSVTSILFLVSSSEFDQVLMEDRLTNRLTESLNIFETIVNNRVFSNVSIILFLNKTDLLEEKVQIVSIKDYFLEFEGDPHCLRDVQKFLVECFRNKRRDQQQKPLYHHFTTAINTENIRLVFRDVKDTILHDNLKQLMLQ
UniProt Q03135: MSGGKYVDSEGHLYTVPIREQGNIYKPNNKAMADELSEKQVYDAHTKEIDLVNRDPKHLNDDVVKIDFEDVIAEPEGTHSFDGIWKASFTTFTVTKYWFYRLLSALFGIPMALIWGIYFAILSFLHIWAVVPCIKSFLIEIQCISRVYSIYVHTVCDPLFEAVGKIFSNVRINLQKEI
GST-Cav1(61–101): residues 61-101 of Q03135
UniProt P61586: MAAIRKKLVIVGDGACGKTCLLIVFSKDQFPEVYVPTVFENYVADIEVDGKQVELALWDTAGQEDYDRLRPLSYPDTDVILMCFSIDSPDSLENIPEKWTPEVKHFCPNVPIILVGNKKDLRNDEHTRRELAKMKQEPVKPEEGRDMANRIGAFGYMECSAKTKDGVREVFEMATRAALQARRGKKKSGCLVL

Tests used:
[1] = molecular target: GST-Gα13 (pGEX-Gα13) (human) (UniProt Q14344); experiment: pull-down; 10 ug GST-Gα13 preloaded with GDP (1 mM) or GTPγS (0.1 mM) at 30 °C for 15 min, linked to glutathione-Sepharose beads; lysates of COS cells transfected with T7-Cav1, MURC-HA and/or p115RhoGEF-FLAG, 4 °C, 2 h; blots with anti-FLAG and anti-GST; only the target purified
GST-Cav1(FL) = GST-Cav1(FL) (UniProt Q03135); experiment: pull-down; GST-Cav1 on glutathione-Sepharose beads; lysates of COS cells transfected with hGα13 and/or hMURC-HA, incubated with GDP or GTPγS; blots with anti-Gα13 and anti-GST; only the target purified
GST-Cav1(61–101) = GST-Cav1(61–101) (UniProt Q03135); experiment: pull-down; 10 ug GST-Cav1 domain on glutathione-Sepharose beads; lysates of COS cells transfected with hMURC-FLAG or hGα13, 4 °C, 2 h; blots with anti-MURC or anti-Gα13; only the target purified
[2] = molecular target: caveolin-1, endogenous in hPASMCs (human (endogenous in hPASMCs)) (UniProt Q03135); experiment: co-IP; hPASMCs transfected with control siRNA or MURC siRNA; Gα13 associated with Cav1
[3] = molecular target: T1, human caveolin-3 with a T7 tag (pcDNA3.1-T7-hCav3) (human) (UniProt P56539); experiment: co-IP; COS cells co-transfected; lysis in 50 mM Tris-HCl pH 8.0, 50 mM NaCl, 1% Nonidet P-40, 60 mM octyl glucoside; lysates incubated with antibody-coated magnetic beads (anti-tag antibodies) at 4 °C overnight; blots
T1 sequence: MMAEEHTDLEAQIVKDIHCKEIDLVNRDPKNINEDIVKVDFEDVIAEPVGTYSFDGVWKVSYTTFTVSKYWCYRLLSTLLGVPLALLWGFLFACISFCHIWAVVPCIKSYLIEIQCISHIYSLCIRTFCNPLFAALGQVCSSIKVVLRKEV

[4] = molecular target: T2, human p115RhoGEF with a FLAG tag (pCS2FLAG-hp115RhoGEF) (human) (UniProt Q92888); experiment: as above
T2 sequence: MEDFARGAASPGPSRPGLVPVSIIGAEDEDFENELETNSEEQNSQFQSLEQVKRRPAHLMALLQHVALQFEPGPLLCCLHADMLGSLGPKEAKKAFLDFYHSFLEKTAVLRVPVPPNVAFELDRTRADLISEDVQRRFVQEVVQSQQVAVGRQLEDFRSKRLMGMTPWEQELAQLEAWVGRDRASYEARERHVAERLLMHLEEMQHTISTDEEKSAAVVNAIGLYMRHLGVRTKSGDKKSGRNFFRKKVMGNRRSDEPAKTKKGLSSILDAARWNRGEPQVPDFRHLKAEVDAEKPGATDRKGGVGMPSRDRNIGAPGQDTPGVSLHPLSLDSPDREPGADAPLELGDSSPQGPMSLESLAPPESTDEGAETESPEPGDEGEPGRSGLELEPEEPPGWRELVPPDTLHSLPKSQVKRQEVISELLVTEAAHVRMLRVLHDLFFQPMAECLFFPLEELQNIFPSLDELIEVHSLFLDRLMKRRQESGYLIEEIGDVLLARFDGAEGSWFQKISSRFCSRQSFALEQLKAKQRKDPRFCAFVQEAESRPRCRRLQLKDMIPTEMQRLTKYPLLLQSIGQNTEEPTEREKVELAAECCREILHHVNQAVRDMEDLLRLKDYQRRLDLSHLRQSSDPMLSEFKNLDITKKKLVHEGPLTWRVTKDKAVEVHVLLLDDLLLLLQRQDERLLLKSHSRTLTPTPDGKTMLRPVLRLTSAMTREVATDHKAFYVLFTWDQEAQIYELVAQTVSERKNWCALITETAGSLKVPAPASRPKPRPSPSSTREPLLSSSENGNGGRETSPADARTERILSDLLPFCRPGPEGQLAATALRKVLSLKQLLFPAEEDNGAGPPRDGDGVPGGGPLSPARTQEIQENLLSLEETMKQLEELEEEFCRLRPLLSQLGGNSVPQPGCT

[5] = molecular target: human caveolin-1 with a T7 tag (pcDNA3.1-T7-hCav1) (human) (UniProt Q03135); experiment: as above
[6] = molecular target: T3, human p115RhoGEF fused to the C-terminal fragment of monomeric Kusabira-Green (phmKGC-MN-hp115RhoGEF) (human) (UniProt Q92888); experiment: split reporter; BiFC with divided monomeric Kusabira-Green (CoralHue Fluo-chase Kit); pairs of plasmids cotransfected into hPASMCs; fluorescence in living cells after 24 h
T3 sequence: T2 sequence

[7] = molecular target: T4, human caveolin-3 fused to the C-terminal fragment of monomeric Kusabira-Green (phmKGC-MN-hCav3) (human) (UniProt P56539); experiment: as above
T4 sequence: T1 sequence

[8] = molecular target: human caveolin-1 fused to the N-terminal fragment of monomeric Kusabira-Green (phmKGN-MC-hCav1) (human) (UniProt Q03135); experiment: as above
[9] = molecular target: human RhoA with a C-terminal HA epitope (pcDNA3.1-hRhoA-HA) (human) (UniProt P61586); experiment: co-IP; COS cells co-transfected; lysis in 50 mM Tris-HCl pH 8.0, 50 mM NaCl, 1% Nonidet P-40, 60 mM octyl glucoside; lysates incubated with antibody-coated magnetic beads (anti-tag antibodies) at 4 °C overnight; blots

Molecule: human Gα13 (pcDNA3.1-hGα13) (from UniProt Q14344 1-377)
- binding (GST-Cav1(FL)): binds
- binding (GST-Cav1(61–101)): binds

Molecule: Gα13, endogenous in hPASMCs (from UniProt Q14344 1-377)
- binding [2]: binds

B2: human MURC fused to the N-terminal fragment of monomeric Kusabira-Green (phmKGN-MC-hMURC) (protein, UniProt Q5BKX8 1-364)
chain: MEHNGSASNADKIHQNRLSSVTEDEDQDAALTIVTVLDKVASIVDSVQASQKRIEERHREMENAIKSVQIDLLKLSQSHSNTGHIINKLFEKTRKVSAHIKDVKARVEKQQIHVKKVEVKQEEIMKKNKFRVVIFQEKFRCPTSLSVVKDRNLTENQEEDDDDIFDPPVDLSSDEEYYVEESRSARLRKSGKEHIDNIKKAFSKENMQKTRQNLDKKVNRIRTRIVTPERRERLRQSGERLRQSGERLRQSGERFKKSISNAAPSKEAFKMRSLRKGKDRTVAEGEECAREMGVDIIARSESLGPISELYSDELSEPEHEAARPVYPPHEGREIPTPEPLKVTFKSQVKVEDDESLLLDLKHSS
- binding [6]: binds

B4: human MURC fused to the C-terminal fragment of monomeric Kusabira-Green (phmKGC-MC-hMURC) (protein, UniProt Q5BKX8 1-364)
chain: B2 chain
- binding [8]: binds

Second part, the molecule after the results:

- binding [1]: binds
Molecule: human caveolin-1 with a T7 tag (pcDNA3.1-T7-hCav1) (from UniProt Q03135 1-178)

- binding [3]: binds
- binding [4]: binds
- binding [5]: binds
- binding (GST-Cav1(FL)): binds
B1: human MURC/Cavin-4 with a C-terminal HA epitope (pcDNA3.1-hMURC-HA) (protein, UniProt Q5BKX8 1-364)
chain: B2 chain

- binding [7]: binds
B3: human MURC fused to the N-terminal fragment of monomeric Kusabira-Green (phmKGN-MN-hMURC) (protein, UniProt Q5BKX8 1-364)
chain: B2 chain

- binding [9]: binds
- binding (GST-Cav1(61–101)): binds
B5: human MURC/Cavin-4 with a C-terminal FLAG epitope (pcDNA3.1-hMURC-FLAG) (protein, UniProt Q5BKX8 1-364)
chain: B2 chain
